Data on 3 molecules can be found in patent US7183260B2, “C-terminal modified oxamyl dipeptides as inhibitors of the ICE/ced-3 family of cysteine proteases” (Idun Pharmaceuticals, Inc., priority 1998, dated 2007).

Sequences of proteins named here, by UniProt entry; tags and fusion partners are left off. Residues count along the entry.
UniProt P29452, 123-296 limits assumed: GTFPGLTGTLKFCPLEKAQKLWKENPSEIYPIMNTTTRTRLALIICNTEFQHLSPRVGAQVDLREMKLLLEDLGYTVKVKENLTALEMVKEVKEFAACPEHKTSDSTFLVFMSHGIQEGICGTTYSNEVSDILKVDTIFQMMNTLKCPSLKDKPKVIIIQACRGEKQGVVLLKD
UniProt P29452, 315-402 limits assumed: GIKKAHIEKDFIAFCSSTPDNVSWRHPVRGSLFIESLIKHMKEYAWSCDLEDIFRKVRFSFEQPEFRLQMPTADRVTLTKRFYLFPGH
UniProt P42574, 29-175 limits assumed: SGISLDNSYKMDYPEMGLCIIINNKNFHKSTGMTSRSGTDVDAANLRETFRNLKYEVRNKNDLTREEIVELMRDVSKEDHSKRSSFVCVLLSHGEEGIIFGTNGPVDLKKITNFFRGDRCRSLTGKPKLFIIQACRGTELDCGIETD
UniProt P42574, 176-277 limits assumed: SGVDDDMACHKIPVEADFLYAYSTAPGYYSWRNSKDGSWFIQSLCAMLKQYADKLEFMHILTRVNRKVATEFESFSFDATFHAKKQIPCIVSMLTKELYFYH
UniProt P55212, 24-179 limits assumed: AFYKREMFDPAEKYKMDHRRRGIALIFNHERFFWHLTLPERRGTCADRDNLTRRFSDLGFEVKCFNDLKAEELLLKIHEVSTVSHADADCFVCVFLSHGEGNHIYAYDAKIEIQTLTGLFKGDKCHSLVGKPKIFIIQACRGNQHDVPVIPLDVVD
UniProt P55212, 194-293 limits assumed: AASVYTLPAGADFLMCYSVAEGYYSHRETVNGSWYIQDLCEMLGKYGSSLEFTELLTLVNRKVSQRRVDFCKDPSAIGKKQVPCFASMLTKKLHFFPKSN
UniProt P55210, 24-198 limits assumed: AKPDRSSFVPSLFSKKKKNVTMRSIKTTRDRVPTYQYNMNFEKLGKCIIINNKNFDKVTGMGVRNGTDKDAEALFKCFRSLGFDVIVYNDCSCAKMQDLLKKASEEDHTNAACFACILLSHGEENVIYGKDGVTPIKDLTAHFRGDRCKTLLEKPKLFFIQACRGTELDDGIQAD
UniProt P55210, 207-303 limits assumed: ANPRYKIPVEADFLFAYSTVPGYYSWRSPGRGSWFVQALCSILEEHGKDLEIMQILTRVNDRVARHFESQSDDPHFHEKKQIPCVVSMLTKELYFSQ
UniProt Q14790, 217-374 limits assumed: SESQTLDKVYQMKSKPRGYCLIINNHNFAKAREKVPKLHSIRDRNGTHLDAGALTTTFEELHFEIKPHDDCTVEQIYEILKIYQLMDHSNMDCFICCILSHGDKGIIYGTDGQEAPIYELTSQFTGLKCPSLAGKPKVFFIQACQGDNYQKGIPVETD
UniProt Q14790, 385-479 limits assumed: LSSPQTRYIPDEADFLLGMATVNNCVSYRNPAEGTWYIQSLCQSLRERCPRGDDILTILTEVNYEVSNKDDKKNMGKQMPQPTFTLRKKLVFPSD

For orientation: IC50 means the point on the concentration scale where inhibition reaches its midpoint.

For assay [1], the target named is T1, mICE (Mus musculus, UniProt P29452). The assay can be described thus: Fluorescence enzyme assay, determination of IC50 values (ICE). The conditions noted are these: read-out: mICE IC50; recombinant enzyme, 30 min preincubation, substrate Acetyl-Tyr-Val-Ala-Asp-AMC, room temperature.
Assay [2] has as its target T2, CPP32 (Homo sapiens, UniProt P42574). The assay can be described thus: Fluorescence enzyme assay, determination of IC50 values (CPP32). The conditions noted are these: read-out: CPP32 IC50; recombinant enzyme, 30 min preincubation, substrate Acetyl-Asp-Glu-Val-Asp-AMC, room temperature.
In assay [3] the target is T3, MCH-2 (Homo sapiens, UniProt P55212). The experiment in a line: Fluorescence enzyme assay, determination of IC50 values (Mch2). The conditions noted are these: read-out: MCH-2 IC50; 30 min preincubation, substrate Acetyl-Asp-Glu-Val-Asp-AMC, room temperature.
A further assay has as its target MCH-3 (Homo sapiens, UniProt P55210). The assay can be described thus: Fluorescence enzyme assay, determination of IC50 values (Mch3). Conditions: read-out: MCH-3 IC50; 30 min preincubation, substrate Acetyl-Asp-Glu-Val-Asp-AMC, room temperature.
In assay [4] the target is T4, MCH-5 (Homo sapiens, UniProt Q14790). The experiment in a line: Fluorescence enzyme assay, determination of IC50 values (Mch5). Conditions: read-out: MCH-5 IC50; 30 min preincubation, substrate Acetyl-Asp-Glu-Val-Asp-AMC, room temperature.
In assay [5] the target is T1, mICE. The experiment in a line: Dissociation constant Ki and irreversible rate constant k3 for irreversible inhibitors (ICE). It counts as biochemical. Conditions: continuous assay 60 min, reaction initiated by adding enzyme to substrate-inhibitor mixture; for Ki: read-out: mICE Ki.
Assay [6] concerns the target T2, CPP32. The experiment in a line: Dissociation constant Ki and irreversible rate constant k3 for irreversible inhibitors (CPP32). The assay is classed as biochemical. The conditions noted are these: continuous assay 60 min, reaction initiated by adding enzyme to substrate-inhibitor mixture; for Ki: read-out: CPP32 Ki.
Assay [7] deals with T3, MCH-2. The assay can be described thus: Dissociation constant Ki and irreversible rate constant k3 for irreversible inhibitors (Mch2). The assay is classed as biochemical. Conditions: continuous assay 60 min, reaction initiated by adding enzyme to substrate-inhibitor mixture; for Ki: read-out: MCH-2 Ki.
In assay [8] the target is T4, MCH-5. The assay can be described thus: Dissociation constant Ki and irreversible rate constant k3 for irreversible inhibitors (Mch5). The assay is classed as biochemical. Conditions: continuous assay 60 min, reaction initiated by adding enzyme to substrate-inhibitor mixture; for Ki: read-out: MCH-5 Ki.

Structures were worked out from names or drawings and are uncertain.

For the molecule `CC(C)[C@H](NC(=O)C(=O)Nc1ccccc1-c1nnn[nH]1)C(=O)N[C@H](C=O)CC(=O)O`, the IC50 at mICE [1] worked out at 59 nM; at CPP32 [2] it was 1380 nM; on MCH-2 [3], 3530 nM; at MCH-3 it was 1130 nM; on MCH-5 [4], 322 nM.

Take `C[S+]([O-])CC[C@H](NC(=O)C(=O)Nc1cccc2ccccc12)C(=O)N[C@@H](CC(=O)O)C(=O)COc1c(F)c(F)cc(F)c1F` (single isomer, unassigned) [110A]: on mICE [5], the “mICE k3/Ki” value is recorded as 835,000 moles^−1 seconds^−1 and the Ki came to 18 nM. Also, at CPP32 [6], the “CPP32 k3/Ki” value is recorded as 21,500 moles^−1 seconds^−1 and the Ki came out at 472 nM. Also, on MCH-2 [7], the “MCH-2 k3/Ki” value was 20,800 moles^−1 seconds^−1 and the Ki came out at 70 nM. Besides, at MCH-5 [8], the “MCH-5 k3/Ki” value was 169,000 moles^−1 seconds^−1 and the Ki was determined as 7.4 nM.

On to `C[S+]([O-])CC[C@H](NC(=O)C(=O)Nc1cccc2ccccc12)C(=O)N[C@@H](CC(=O)O)C(=O)COc1c(F)c(F)cc(F)c1F` (single isomer, unassigned) [110B], for which, at mICE [5], the “mICE k3/Ki” value is given as 1,010,000 moles^−1 seconds^−1 and the Ki came out at 17 nM. For the same molecule, on CPP32 [6], the “CPP32 k3/Ki” value is reported as 81,900 moles^−1 seconds^−1 and the Ki came to 104 nM. On MCH-2 [7], the “MCH-2 k3/Ki” value is recorded as 41,700 moles^−1 seconds^−1 and the Ki was 80 nM. Besides, on MCH-5 [8], the “MCH-5 k3/Ki” value is 180,000 moles^−1 seconds^−1 and the Ki was 7.8 nM.
